For at least one compound, name, drawing or mass did not settle the structure.
Columns and labels:
[1] = patients with prostate cancer bone metastases, regardless of radiographic phenotype; cited from earlier work
RyR1 = RyR1 oxidation/nitrosylation/calstabin1 immunoblot of EDL from PC-3 tumor bearing mice; type: in vivo; conditions: mice with prostate cancer metastatic to bone
Description: In embodiments B and C are shown decreased skeletal muscle cross-sectional area in tumor-bearing mice determined by Micro-CT as described herein. In embodiments D and E are shown decreased body weight (D) and decreased Grip strength (E) in PC-3 tumor bearing mice. […] In embodiment J is shown that RyR1 is oxidized and there is decreased calstabin1 in the RyR1 complex from, skeletal muscle (EDL) from mice with metastatic prostate cancer. RyR1 was immunoprecipitated from 250 μg of EDL homogenate using an anti-RyR antibody (4 μg 5029 Ab), and the immunoprecipitates were separated on SDS-PAGE gels (6% for RyR. 15% for Calstabin). All immunoblots were developed and quantified with the Odyssey system (LI-COR, Inc., Lincoln, Nebr.) using IR labeled anti-mouse and anti-Rabbit IgG (1:10,000 dilution) secondary antibodies. […] Quantification of immunoblots showing the relative nitrotyrosine/SERCA for each group of EDLs tested. *p<0.01 compared to non-cancer controls as analyzed by ANOVA. […]
Quantification of RyR1 skeletal channel nitrosylation, oxidation and phosphorylation by protein kinase A (PKA) are performed as described (Bellinger et al., 2009; Bellinger et al., 2008b).
Quantification of depletion of the channel stabilizing subunit calstabin 1 (FKBP12) from skeletal RyR1 by immunoprecipitation techniques are performed as described (Marx et al., 2000). […]

For `O=P(O)(O)C(O)(Cn1ccnc1)P(=O)(O)O` [zoledronic acid], the skeletal morbidity [1] is listed as “reduce skeletal morbidity” and the “skeletal muscle RyR1 oxidation, nitrosylation and depletion of calstabin 1” value (RyR1) is listed as “did not prevent the skeletal muscle RyR1 oxidation, nitrosylation and depletion of calstabin 1”.
